Source: PMC7862700
The list shows a part of the results. Construct or isoform of the protein are uncertain.

Target: T1, ELF2 (UniProt Q15723)
T1 sequence: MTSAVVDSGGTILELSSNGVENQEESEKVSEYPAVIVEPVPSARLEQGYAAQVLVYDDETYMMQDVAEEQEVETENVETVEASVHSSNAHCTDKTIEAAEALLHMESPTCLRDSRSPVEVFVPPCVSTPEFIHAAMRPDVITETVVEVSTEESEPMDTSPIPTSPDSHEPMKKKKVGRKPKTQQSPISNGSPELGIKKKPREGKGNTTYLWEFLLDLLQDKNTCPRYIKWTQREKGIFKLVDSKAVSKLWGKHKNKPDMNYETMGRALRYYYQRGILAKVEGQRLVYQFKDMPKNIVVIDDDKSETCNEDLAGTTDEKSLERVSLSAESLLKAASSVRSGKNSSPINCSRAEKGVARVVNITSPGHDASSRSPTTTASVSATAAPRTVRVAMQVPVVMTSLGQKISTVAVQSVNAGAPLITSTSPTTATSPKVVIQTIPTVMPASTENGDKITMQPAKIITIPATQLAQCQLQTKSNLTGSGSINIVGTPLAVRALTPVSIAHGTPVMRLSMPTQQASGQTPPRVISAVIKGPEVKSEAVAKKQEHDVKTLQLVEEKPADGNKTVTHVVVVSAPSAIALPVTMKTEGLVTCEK
Test: DAPPL (digital affinity profiling via proximity ligation, sequencing)
Settings: 10 mM Tris-HCl pH 7.5, 50 mM NaCl, 1 mM DTT, 4% glycerol, room temperature, 30 min; GST-TFs on glutathione beads, 16-mer random dsDNA library, 0.1% …; high values mean tight binding; double strand, one strand shown; scale: fold enrichment (6-mer frequency, TF over GST control)

Sequence	binding signal
CGAGAA	0.847
TTTGCA	1.23
AACAAC	1.32
CTAACC	1.14
CGTCTG	0.951
TCGCCC	1.24
GAATAG	0.944
TGATTT	1.33
CTCCCC	1.32
AATGCG	1.37
CGTCGA	0.837
ATGTGC	1.08
CATTCG	1.09
TAGTAG	0.988
ACTGGA	0.975
GTTCGA	1.06
CCAGCA	0.884
CGCTCG	0.993
TAGCAT	1.11
TATGCA	1.21

Sequence	binding signal
ATTCAA	1.28
TGATCG	1.05
AACCCT	1.23
AACCCG	1.85
TTAGTG	0.829
CTATTG	1.3
TTACGG	1.36
ACGGAT	1.32
CTGCTC	1.17
AATCTC	1.23
ATAAGT	1.03
ATAAGA	1.03
ATTCCA	1.14
TCGCGA	0.833
CCATTA	1.08
GCCTTA	1.12
AGTAAA	1.07
ACGAAG	0.909
CACGCG	1.09
ATAATG	1.09
